According to paper PMC10163288:
Some of the results follow.

B1: il2ra_site2_3nfp_normal_mot_HHH_b2_03679_af2_000000123_0001_41_56_H_._HHH_b1_07302_0001_0000700056_0000001_0 (protein)
chain: SSSSNTEEYLRAALALLERAVRRGDEEFVEKLFHLIHLAVHSARDPEAEERLEELYERFRSSSSS
B2: il2ra_site1_2b5i_sap_10_mot_HHH_b2_00109_af2_000000107_0001_39_57_H_._HHH_b1_08498_af2_0001_0000400018_0000001_0_0001_af2pred_dldesign_0_af2pred (protein)
chain: SSSSSEKVRRLIEELDRLLAAGELEKARELAKELAKVAAEEDDVELRTEAIKRIKRVELASSSSS
B3: il2ra_site2_2erj_sap_26_mot_6ec3e94b46d95805cdcdc10c0c108f03_0001_af2_000000040_0001_36_50_H_._HHH_b1_01725_0001_0000100002_0000001_0_0001 (protein)
chain: SSSSDESEEVLEEVEKELREARERGDLELLFEIAREALELLAKLNDPEAAEELDRLFMRLSSSSS
B4: il2ra_site2_2erj_normal_mot_HHH_b1_02566_000000063_0001_42_58_H_._HHH_b2_02780_0001_0000200010_0000001_0 (protein)
chain: SSSSSDTEVYEKVARLLAELQEIDDEEELRELLREAQELAEEVNSEALKRYVEFAERLLSSSSSS
B5: il2ra_site1_1z92_sap_10_mot_HHH_b2_05172_af2_000000284_0001_1_18_H_._HHH_b1_07609_0001_0000100008_0000001_0_0001_af2pred_dldesign_0_af2pred (protein)
chain: SSSSSSNVDDEIYDLFLKTHHSSKEERKKLLEEALALAKAAKNSKIVAELEKYLEMLKSSSSSSS
B6: il2ra_site2_2erj_sap_28_mot_HHH_b2_02500_af2_000000175_0001_19_35_H_._HHH_b1_04651_0001_0000200043_0000001_0_0001 (protein)
chain: SSSSNEDLKRAYELANEITRLLAEGDEEEVEKLLEELRELAERLKSPSLEEMVESLERKISSSSS
B7: il2ra_site1_3nfp_normal_mot_HHH_b1_05690_000000100_0001_1_15_H_._11405e7faed88c9d08fdae67291e590b_0001_1_0001_0000100004_0000001_0 (protein)
chain: SLERYVERAEELDPRLEELLKRALELIQELGDPELARLLIKVVALLELGDPETEKEAEELLRQIE
B8: il2ra_site1_1z92_normal_mot_01209686ea234b34325f918445e6eade_0001_af2_000000154_0001_18_33_H_._HHH_b1_01021_0001_0000100004_0000001_0_af2pred_0001_1_af2pred_swa … (protein)
chain: SSSSSDELEEFIEELVKELGLDEEAKETLERLLEKLQEQGVSERAIRRALERMARRMRGSSSSSS
B9: il2ra_site1_1z92_normal_mot_0a69b5c9b02373fb877a90f2b4b0d8e1_0001_1_af2_000000257_0001_17_32_H_._26f414d7b340708b6e9383f836a3294b_0001_af2_0001_0000200006_00000 … (protein)
chain: PEALEELFERSREQGIPPRSVARALLDALRRLGIPPEEVEELVRQVLERLLGDPEEAREVLEEAR
B10: il2ra_site1_1z92_normal_mot_HHH_b2_07758_000000290_0001_1_17_H_._HHH_b1_00264_0001_0000600035_0000001_0_af2pred_0001_af2pred_1_swapped (protein)
chain: SSSSSREERFLRRAVELAVKLAGLSPEQEEELEELARELAERGVDPLEASRILDKKASELSSSSS
B11: il2ra_site1_2b5i_sap_11_mot_HHH_b2_06044_000000134_0001_1_20_H_._HHH_b2_00948_af2_0001_0000100015_0000001_0_0001 (protein)
chain: SSSSDADERVQELFRRASELFRKGNPEEAQELLEEALELARERNDPRLVKDLEFILERIRSSSSS
B12: il2ra_site1_3nfp_normal_mot_HHH_b2_05933_af2_000000220_0001_1_18_H_._HHH_b1_07122_af2_0001_0000100001_0000001_0_af2pred_0001_af2pred_1 (protein)
chain: SSSSSNKEAARLLRQAAEAARNGNPEEAEELLEEALRIAEEAGNELLVRFIEQALKLVRALSSSS
B13: il2ra_site1_3nfp_normal_mot_ems_3hC_921_af2_000000143_0001_22_40_H_._HHH_b1_03028_0001_0000400037_0000001_0_af2pred_0001_af2pred (protein)
chain: SSSSSNKLEEFQRLAKEAHKIEDREELEEVLEELEKIAEEANSPVAELLVERLRKKAEELSSSSS
B14: il2ra_site1_3nfp_sap_12_mot_HHH_b1_01231_af2_000000170_0001_1_16_H_._HHH_b2_05578_af2_0001_0000100006_0000001_0_0001_af2pred_0001_af2pred_1 (protein)
chain: SSSSSEELEELRELIRELQELREEGDEERAREVAERAEELAERLNDRSARRSVRIAKKLLSSSSS
B15: il2ra_site1_1z92_sap_7_mot_HHH_b2_05172_af2_000000284_0001_1_18_H_._HHH_b2_00134_af2_0001_0000200012_0000001_0_0001_af2pred_0001_af2pred_1 (protein)
chain: NIRESVEELLRELGDPEEVAKELIEYARRAGSPPEFVRKFVRAILRRLLNIPPEEAEEIVRRAEK
B16: il2ra_site1_1z92_normal_mot_add8a691351788dd45ba4deda1838316_0001_1_000000225_0001_37_51_H_._HEEHE_0134_0001_0000100007_0000001_0_af2pred_0001_af2pred_1 (protein)
chain: SDEELVRKAIEDIARIVGVPSVTVEVKDGEIEVRFEGNDQKARTAAKIVEKLLKAAGLTAEVEVE
B17: il2ra_site2_2erj_sap_19_mot_HHH_b1_03702_000000266_0001_38_56_H_._d18551acd042526603bd7f0d0960009a_0001_0001_0000200008_0000001_0_0001_af2pred_0001_1_af2pred_sw … (protein)
chain: SSSSDEELRRRVEEFAEELVKELGLSRSDKLLLLSFALALVERGASEEWIEELLKRLAKNASSSS
B18: il2ra_site1_3nfp_normal_mot_40e86e4e32a25ee6cbb7392bdf050625_0001_1_000000004_0001_1_15_H_._HHH_b1_06407_af2_0001_0000100001_0000001_0 (protein)
chain: SSSSSSEEATELFKQVKELLKEGDKEEIEKILERLKELAEELNDPLLERLVRQYEEALKRRSSSS
B19: il2ra_site1_1z92_sap_13_mot_HHH_b1_07624_af2_000000183_0001_1_21_H_._HHH_b2_06189_0001_0000100001_0000001_1_0001 (protein)
chain: SSSSTDEAARIVLRIVNEVARKFNLSDEEFLELLRLADELLIKGYSEEEIKEILEELAEKSSSSS

The binders below were run against il2ra, P01589 (assay: yeast display titration).

Apparent Kd, inactive:
B1 no binding seen
B2 no binding seen
B3 no binding seen
B4 no binding seen
B5 no binding seen
B6 no binding seen
B7 no binding seen
B8 no binding seen
B9 no binding seen
B10 no binding seen
B11 no binding seen
B12 no binding seen
B13 no binding seen
B14 no binding seen
B15 no binding seen
B16 no binding seen
B17 no binding seen
B18 no binding seen
B19 no binding seen

Quoted at random: 2 entries already listed, in no set order.
Apparent Kd, inactive:
B5 no binding seen
B19 no binding seen
